# Taken from: PubChem BioAssay AID686943 (Drosophila RNAi Screening Center, 2013)
# Purpose: 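Knockdowns that increase or decrease active ERK after insulin receptor stimulation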 (primary screen)
# Cells: Drosophila S2R+ haemocyte-like cells expressing YFP-tagged ERK (Rolled)
# Reagent: long dsRNA against Drosophila genes
# Treatment: insulin stimulation versus unstimulated cells; dose and duration not given
# Read-out: 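Antibody staining for doubly phosphorylated ERK divided by ERK-YFP signal, as plate z-scores, in insulin-treated and untreated cells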
# Reading the numbers: replicate 1, z-score of dpERK with insulin and replicate 2, z-score of dpERK with insulin: higher = more active ERK per ERK-YFP after insulin
# In all, the deposit lists about 23,000 reagents; shown is a random part of those that have a named target and a result. 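Extra replicates exist only for a retested subset of genes; insulin dose and duration not given; both raised and lowered dpERK matter.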 Names joined by + are all predicted targets of the reagent. Not all columns of the deposit are shown. Not stated in the record: the amount of reagent, the time to read-out.
The opening 2 records, ahead of the listing:
target gene,amplicon,"replicate 1, z-score of dpERK with insulin","replicate 2, z-score of dpERK with insulin"
CG10418,DRSC09720,1.3,-0.26
Mvk + CG33672 + spt4,DRSC05356,0.53,0.2

The listing, from the start:
target gene,amplicon,"replicate 1, z-score of dpERK with insulin","replicate 2, z-score of dpERK with insulin"
CG10418,DRSC09720,1.3,-0.26
Mvk + CG33672 + spt4,DRSC05356,0.53,0.2
Mvk + CG33672 + spt4,DRSC06628,-1.48,-0.93
pit (pitchoune),DRSC17025,0.47,0.14
pit (pitchoune),DRSC22798,0.04,0.81
Ppt2 (Palmitoyl-protein Thioesterase 2),DRSC02786,-0.71,-0.2
Cnot4 (CCR4-NOT transcription complex subunit 4),DRSC02830,0.18,0.1
Cnot4 (CCR4-NOT transcription complex subunit 4),DRSC02831,-0.34,-0.17
CG3842,DRSC18326,-0.41,-0.39
Skp2 + CG1103,DRSC12160,0.94,-0.02
Skp2 + CG1103,DRSC22356,0.99,0.11
CG33630,DRSC14546,-0.4,0.15
CecC (Cecropin C),DRSC16606,0.47,-0.38
CycB3 (Cyclin B3),DRSC16618,-0.33,-0.23
Coq6 (Coenzyme Q6),DRSC03040,0.14,-0.92
CSN6 (COP9 signalosome subunit 6),DRSC16593,-1.03,-0.05
Zip102B (Zinc/iron regulated transporter-related protein 102B),DRSC17155,0.33,0.52
mRpL49 (mitochondrial ribosomal protein L49),DRSC19908,-0.96,-0.05
Best3 (Bestrophin 3),DRSC09880,-0.03,1.16
CG30279 (retired record),DRSC22417,0.73,0.19
CG31323,DRSC14901,0.41,-0.21
Hmu (Hemomucin),DRSC16705,0.16,0.15
danr (distal antenna-related),DRSC14651,0.35,-0.22
